Chains of the proteins cited; added tags and fusions are not shown. Residues count along the entry.
UniProt P08047, 2-785: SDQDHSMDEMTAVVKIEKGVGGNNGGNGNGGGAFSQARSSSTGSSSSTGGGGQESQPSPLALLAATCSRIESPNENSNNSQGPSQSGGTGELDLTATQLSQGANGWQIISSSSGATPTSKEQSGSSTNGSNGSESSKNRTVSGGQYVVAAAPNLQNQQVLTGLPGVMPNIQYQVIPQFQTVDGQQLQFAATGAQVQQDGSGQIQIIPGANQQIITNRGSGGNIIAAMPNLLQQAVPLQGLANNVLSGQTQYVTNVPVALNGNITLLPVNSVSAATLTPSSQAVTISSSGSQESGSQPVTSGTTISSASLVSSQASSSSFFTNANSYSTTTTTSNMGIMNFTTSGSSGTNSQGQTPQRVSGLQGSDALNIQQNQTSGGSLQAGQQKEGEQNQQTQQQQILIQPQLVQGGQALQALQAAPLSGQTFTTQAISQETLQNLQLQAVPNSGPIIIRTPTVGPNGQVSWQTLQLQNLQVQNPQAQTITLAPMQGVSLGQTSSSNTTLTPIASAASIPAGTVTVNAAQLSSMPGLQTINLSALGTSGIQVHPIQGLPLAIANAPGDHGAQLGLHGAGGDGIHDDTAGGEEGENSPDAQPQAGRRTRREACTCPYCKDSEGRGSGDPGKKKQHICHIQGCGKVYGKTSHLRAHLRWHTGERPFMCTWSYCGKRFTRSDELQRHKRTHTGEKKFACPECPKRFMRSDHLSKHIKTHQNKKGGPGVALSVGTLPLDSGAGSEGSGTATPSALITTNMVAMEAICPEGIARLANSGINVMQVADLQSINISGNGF

According to PMC9391581:

What was measured:
Test in all cases: EMSA supershift
3xFLAG-KLF4 (human) = conditions: anti-FLAG; EMSA: 10 mM Tris-HCl pH 7.5, 53 mM NaCl, 1 mM DTT, 0.01% NP40, 5% glycerol, protein inhibitors, RT 30 min; protein in an extract; residues 1-479; protein details: 3xFLAG; label: 32P 5' end
[1] = tested on: 3xFLAG-KLF4 K409Q (human); conditions: anti-FLAG; EMSA: 10 mM Tris-HCl pH 7.5, 53 mM NaCl, 1 mM DTT, 0.01% NP40, 5% glycerol, protein inhibitors, RT 30 min; protein in an extract; residues 1-479; protein details: 3xFLAG; label: 32P 5' end
Sp1 (endogenous) (human) = Sp1 (endogenous) (human) (UniProt P08047); conditions: anti-Sp1; EMSA: 10 mM Tris-HCl pH 7.5, 53 mM NaCl, 1 mM DTT, 0.01% NP40, 5% glycerol, protein inhibitors, RT 30 min; protein in an extract; label: 32P 5' end

Measured: binding result

GTGGCCTGGGCGGGACTGGG (double strand) [KLF4 consensus probe]
binds: 3xFLAG-KLF4 (human) | [1] | Sp1 (endogenous) (human)

The exact form of at least one protein or probe is not confirmed. Where cells or extracts were used, other partners may take part.
